Results on 18 compounds are retold here after PubChem BioAssay AID200 (DTP/NCI, 2004).

The list does not hold the whole screen: it is rich in T/C values a quarter to a half above the control, in often repeated tests (any T/C) and in doses without a T/C. Further doses and runs are listed elsewhere. T/C: endpoint of the treated group in % of that of the vehicle group. Some doses have a count of surviving animals in place of a T/C: the source files T/C as zero there, which appears to mark a toxic dose or a test without result, not a measured value. Some survivor counts are full or nearly so, which does not show that the dose was tolerated: survival well below the control is almost never listed, so the zero probably covers shortened survival too. Counts of survivors are from the toxicity check (mostly the fifth day) where no day follows; animals may have died later. Schedules are NCI's codes, taken here to give the interval after Q, in days (D) or hours (H), and the number of doses after X. Brackets with × count equal records among those shown. Some entries were tested several times; the values are given in rising order. Where survival is the endpoint, this PubChem deposit counts one and a half times the control or more as active, and values a quarter to a half above the control carry no call in these data; other NCI protocols may use other cut-offs. Some T/C values carry the count of animals alive at the toxicity check (mostly the fifth day); where none is given, no animal had died by that day.

This test deals with B6C3F1 mice, B16 melanoma ip, median survival T/C. Description: NCI In Vivo Anticancer Drug Screen. Data for tumor model B16 Melanoma (intraperitoneal) in B6C3F1 mice. The conditions noted are these: T/C endpoint: median survival time, schedule: Q01DX009 (ip), higher T/C = longer survival. The gist of the method: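 Values are T/C ratios: the measurement in treated animals divided by that in vehicle-treated controls, using survival or tumor size in mice carrying transplantable tumors.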

The mark [1] stands for this setting: dose: 200.0 mg/kg/injection, vehicle: saline with Tween-80.
Setting [2] is: dose: 400.0 mg/kg/injection, vehicle: saline with Tween-80.
The mark [3] stands for this setting: dose: 12.5 mg/kg/injection, vehicle: saline with Tween-80.
The mark [4] stands for this setting: dose: 25.0 mg/kg/injection, vehicle: saline with Tween-80.
[5] abbreviates: dose: 50.0 mg/kg/injection, vehicle: saline with Tween-80.
Setting [6] is: dose: 200.0 mg/kg/injection, vehicle: saline.
The mark [7] stands for this setting: dose: 25.0 mg/kg/injection, vehicle: saline.
The mark [8] stands for this setting: dose: 400.0 mg/kg/injection, vehicle: suspension in saline.
Setting [9] is: dose: 12.5 mg/kg/injection, vehicle: water.

As to `O=C(CCCCCCC(=O)ON1C(=O)CCC1=O)ON1C(=O)CCC1=O`, the survivor count runs as follows: under setting [1], 4 of 10; under setting [2], 0 of 10.
Take `COc1cc(O)c2c(O)c3c(c4c2c1[C@]1(C4)C(C)=CCCC1(C)C)[C@H](O)[C@@]1(O)CC(=O)C(C(N)=O)=C(O)[C@@]1(O)C3=O`: under setting [3], the T/C is 126 % of control. The survivor count is listed as 10 of 10 under setting [4] and 1 of 10 under setting [5].
As for `O=C(O)CP(=O)(O)O`, the T/C under setting [6] was 134 % of control. Moreover, the survivor count is, setting by setting: (dose: 1600.0 mg/kg/injection, vehicle: saline) 10 of 10; (dose: 3200.0 mg/kg/injection, vehicle: saline) 0 of 10.
For `O=C1C=C(N2CC2)C(=O)C(N2CC2)=C1N1CC1`, the T/C is 130 % of control (dose: 12.5 micrograms/kg/injection, vehicle: saline); 140 % of control (dose: 25.0 micrograms/kg/injection, vehicle: saline); 130 % of control (dose: 50.0 micrograms/kg/injection, vehicle: saline). Moreover, the survivor count reads like this: (dose: 100.0 micrograms/kg/injection, vehicle: saline) 9 of 10; (dose: 200.0 micrograms/kg/injection, vehicle: saline) 6 of 10.
`Nc1ncnc2c1cnn2Cc1ccc(Cl)cc1`: the survivor count under setting [1] is 9 of 10.
For `CO[C@@H]1[C@H](O)CC[C@]2(CO2)[C@H]1[C@@]1(C)O[C@@H]1CC=C(C)C`, the T/C is 106 % of control (dose: 6.25 mg/kg/injection, vehicle: saline with Tween-80, evaluated on day 45); 104, 108, 110 % of control [9 of 10 alive] (dose: 6.25 mg/kg/injection, vehicle: saline with Tween-80, evaluated on day 60); 106 % of control (dose: 12.5 mg/kg/injection, vehicle: saline with Tween-80, evaluated on day 45); 101, 107, 109 % of control (dose: 12.5 mg/kg/injection, vehicle: saline with Tween-80, evaluated on day 60); 131 % of control (dose: 12.5 mg/kg/injection, vehicle: saline); 100 % of control (dose: 25.0 mg/kg/injection, vehicle: saline with Tween-80, evaluated on day 45). Moreover, the T/C was 103, 106, 115 % of control (dose: 25.0 mg/kg/injection, vehicle: saline with Tween-80, evaluated on day 60); 131 % of control under setting [7]; 102 % of control [9 of 10 alive] (dose: 50.0 mg/kg/injection, vehicle: saline with Tween-80, evaluated on day 45); 110 % of control (3×) (dose: 50.0 mg/kg/injection, vehicle: saline with Tween-80, evaluated on day 60).
Consider `CC1=C(O)C(=O)[C@@H]2O[C@@H]2C1=O`, for which the survivor count under setting [7] was 5 of 10 and 6 of 10.
`CC(=O)Nc1c2sscc-2n(C)c1=O`: the survivor count was 9 of 10 (dose: 1.56 mg/kg/injection, vehicle: saline); 9 of 10 (dose: 3.13 mg/kg/injection, vehicle: saline with Tween-80); 0 of 10 (dose: 6.25 mg/kg/injection, vehicle: saline with Tween-80); 0 of 10 under setting [3]; 0 of 10 under setting [4].
With `O=C1N[C@H]2[C@H](CS[C@H]2CCCCC(=O)N(CCP(c2ccccc2)c2ccccc2)CCP(c2ccccc2)c2ccccc2)N1`, the survivor count (dose: 100.0 mg/kg/injection, vehicle: Klucel (hydroxypropylcellulose) (HPC)) is recorded as 10 of 10; the survivor count (dose: 200.0 mg/kg/injection, vehicle: Klucel (hydroxypropylcellulose) (HPC)) was 7 of 10; the survivor count (dose: 400.0 mg/kg/injection, vehicle: Klucel (hydroxypropylcellulose) (HPC)) was 10 of 10.
Consider `CC[C@H](CC[C@@H](C)C1CC[C@H]2[C@@H]3CC=C4C[C@@H](OP(=O)(N5CC5)N5CC5)CC[C@]4(C)[C@H]3CC[C@]12C)C(C)C` (some centres not stated), for which the survivor count under setting [2] was 10 of 10 (2×).
As for `CC[C@@]1(O)C[C@H](OC2CC(N(C)C)C(OC3CC(O)C(OC4CCC(=O)C(C)O4)C(C)O3)C(C)O2)c2c(cc3c(c2O)C(=O)c2c(O)cccc2C3=O)[C@H]1C(=O)OC` (some centres not stated), the T/C (dose: 0.75 mg/kg/injection, vehicle: saline with Tween-80) was 125 % of control and the T/C (dose: 1.5 mg/kg/injection, vehicle: saline with Tween-80) is 132 % of control.
As to `O=c1[nH]c(=O)c2nc(-c3cccnc3)cnc2[nH]1`, the survivor count runs as follows: under setting [6], 10 of 10; (dose: 400.0 mg/kg/injection, vehicle: saline) 10 of 10.
Regarding `COC12C(COC(=O)NCCO)C3=C(C(=O)C(C)=C(N)C3=O)N1CC1NC12` (configuration not stated), for the setting “dose: 6.25 mg/kg/injection, vehicle: Klucel (hydroxypropylcellulose) (HPC)”, the T/C is 147 % of control. In addition, the survivor count (dose: 50.0 mg/kg/injection, vehicle: Klucel (hydroxypropylcellulose) (HPC)) is on record as 10 of 10.
In the case of `O=c1[nH]cnc2[nH]ncc12`, the survivor count by setting is: (dose: 200.0 mg/kg/injection, vehicle: suspension in saline) 8 of 10; under setting [8], 3 of 10.
`C1CNCCN1`: under setting [8], the survivor count was 3 of 10.
With `c1ccc([Te][Te]c2ccccc2)cc1`, under setting [3], the T/C was 128 % of control. Further, the survivor count is, setting by setting: under setting [4], 9 of 10; (dose: 48.0 mg/kg/injection, vehicle: saline with Tween-80) 8 of 10; under setting [5], 3 of 10; (dose: 100.0 mg/kg/injection, vehicle: saline with Tween-80) 0 of 10; under setting [1], 0 of 10.
On to `Nc1ncnc2c1c1c(=O)[nH]c(=O)[nH]c1n2C1OC(CO)C(O)C1O` (configuration not stated), for which the T/C is 132 % of control (dose: 50.0 mg/kg/injection, vehicle: distilled water + Tween-80); 125 % of control (dose: 100.0 mg/kg/injection, vehicle: distilled water + Tween-80); 147 % of control [9 of 10 alive] (dose: 400.0 mg/kg/injection, vehicle: distilled water + Tween-80).
Consider `CCN(Cc1ccc(Cl)c(Cl)c1)c1ccc2nc(N)nc(N)c2c1C`, for which the T/C reads like this: (dose: 1.56 mg/kg/injection, vehicle: distilled water + Tween-80) 132 % of control; (dose: 6.25 mg/kg/injection, vehicle: distilled water + Tween-80) 140 % of control; (dose: 6.25 mg/kg/injection, vehicle: water, evaluated on day 45) 131 % of control; (dose: 6.25 mg/kg/injection, vehicle: water, evaluated on day 60) 125 % of control; (dose: 12.5 mg/kg/injection, vehicle: distilled water + Tween-80) 126 % of control; under setting [9], 130 % of control. The survivor count under setting [9] is on record as 10 of 10; the survivor count (dose: 25.0 mg/kg/injection, vehicle: water) was 10 of 10 (2×); the survivor count (dose: 50.0 mg/kg/injection, vehicle: water) is 8 of 10 and 10 of 10 (2×); the survivor count (dose: 100.0 mg/kg/injection, vehicle: water) is given as 5 of 10, 7 of 10, 9 of 10.
